Reference: article PMC8593239
Results are given in words; binding and its absence hold for the method and conditions named. Some results given as binding are weak or reduced against the parent protein; the word gives no strength.

By UniProt entry, the sequences of proteins in these tests, tags left out. Where a name states a change or a piece, a line headed by the entry shows the natural chain unless it says otherwise. Residues count along the entry.
UniProt P06756: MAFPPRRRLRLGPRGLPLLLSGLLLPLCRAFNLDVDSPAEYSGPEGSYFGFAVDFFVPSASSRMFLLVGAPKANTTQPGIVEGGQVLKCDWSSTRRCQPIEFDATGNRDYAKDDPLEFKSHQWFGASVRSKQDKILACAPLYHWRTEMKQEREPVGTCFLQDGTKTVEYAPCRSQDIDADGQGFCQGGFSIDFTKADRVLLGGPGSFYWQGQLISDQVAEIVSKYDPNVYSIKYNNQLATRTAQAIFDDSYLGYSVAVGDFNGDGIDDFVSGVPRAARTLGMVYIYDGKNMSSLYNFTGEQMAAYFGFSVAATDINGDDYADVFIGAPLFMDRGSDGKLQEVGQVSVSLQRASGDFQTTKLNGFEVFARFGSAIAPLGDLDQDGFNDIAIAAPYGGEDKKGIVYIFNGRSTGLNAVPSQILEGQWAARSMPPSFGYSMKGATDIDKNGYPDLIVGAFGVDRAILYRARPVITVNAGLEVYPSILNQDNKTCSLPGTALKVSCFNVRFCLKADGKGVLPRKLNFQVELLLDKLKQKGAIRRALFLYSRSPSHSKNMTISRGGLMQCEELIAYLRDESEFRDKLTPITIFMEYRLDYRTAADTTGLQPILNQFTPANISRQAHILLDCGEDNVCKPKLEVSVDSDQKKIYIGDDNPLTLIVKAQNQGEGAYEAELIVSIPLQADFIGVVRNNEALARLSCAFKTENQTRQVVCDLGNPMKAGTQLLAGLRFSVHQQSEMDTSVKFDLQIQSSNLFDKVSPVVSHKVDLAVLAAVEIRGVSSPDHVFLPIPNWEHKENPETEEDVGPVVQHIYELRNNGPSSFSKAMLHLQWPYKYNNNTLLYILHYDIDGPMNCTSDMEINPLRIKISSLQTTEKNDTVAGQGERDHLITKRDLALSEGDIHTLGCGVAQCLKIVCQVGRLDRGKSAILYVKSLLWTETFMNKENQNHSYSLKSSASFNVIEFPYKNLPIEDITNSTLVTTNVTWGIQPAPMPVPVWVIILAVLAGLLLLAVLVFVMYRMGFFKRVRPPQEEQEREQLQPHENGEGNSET
UniProt P18084: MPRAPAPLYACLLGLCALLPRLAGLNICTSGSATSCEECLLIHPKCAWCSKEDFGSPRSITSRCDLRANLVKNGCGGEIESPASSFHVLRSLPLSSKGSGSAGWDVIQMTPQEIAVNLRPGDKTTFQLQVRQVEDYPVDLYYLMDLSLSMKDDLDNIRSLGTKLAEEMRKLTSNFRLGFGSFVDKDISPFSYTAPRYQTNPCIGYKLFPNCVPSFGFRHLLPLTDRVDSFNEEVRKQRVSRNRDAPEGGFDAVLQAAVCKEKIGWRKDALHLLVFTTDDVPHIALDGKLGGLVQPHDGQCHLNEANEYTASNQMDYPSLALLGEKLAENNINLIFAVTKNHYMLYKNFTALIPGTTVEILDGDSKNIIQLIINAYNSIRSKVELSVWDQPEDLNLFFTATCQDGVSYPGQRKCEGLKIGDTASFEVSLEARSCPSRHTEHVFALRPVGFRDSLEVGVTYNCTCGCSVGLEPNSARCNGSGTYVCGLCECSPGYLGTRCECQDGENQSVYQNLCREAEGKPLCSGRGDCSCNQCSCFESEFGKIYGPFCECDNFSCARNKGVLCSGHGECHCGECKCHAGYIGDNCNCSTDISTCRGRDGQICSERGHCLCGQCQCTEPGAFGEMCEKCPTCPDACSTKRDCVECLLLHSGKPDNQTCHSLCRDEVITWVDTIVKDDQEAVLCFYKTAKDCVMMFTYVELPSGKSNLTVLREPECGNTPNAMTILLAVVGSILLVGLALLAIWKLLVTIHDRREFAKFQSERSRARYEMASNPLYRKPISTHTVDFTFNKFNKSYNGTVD
UniProt P05106: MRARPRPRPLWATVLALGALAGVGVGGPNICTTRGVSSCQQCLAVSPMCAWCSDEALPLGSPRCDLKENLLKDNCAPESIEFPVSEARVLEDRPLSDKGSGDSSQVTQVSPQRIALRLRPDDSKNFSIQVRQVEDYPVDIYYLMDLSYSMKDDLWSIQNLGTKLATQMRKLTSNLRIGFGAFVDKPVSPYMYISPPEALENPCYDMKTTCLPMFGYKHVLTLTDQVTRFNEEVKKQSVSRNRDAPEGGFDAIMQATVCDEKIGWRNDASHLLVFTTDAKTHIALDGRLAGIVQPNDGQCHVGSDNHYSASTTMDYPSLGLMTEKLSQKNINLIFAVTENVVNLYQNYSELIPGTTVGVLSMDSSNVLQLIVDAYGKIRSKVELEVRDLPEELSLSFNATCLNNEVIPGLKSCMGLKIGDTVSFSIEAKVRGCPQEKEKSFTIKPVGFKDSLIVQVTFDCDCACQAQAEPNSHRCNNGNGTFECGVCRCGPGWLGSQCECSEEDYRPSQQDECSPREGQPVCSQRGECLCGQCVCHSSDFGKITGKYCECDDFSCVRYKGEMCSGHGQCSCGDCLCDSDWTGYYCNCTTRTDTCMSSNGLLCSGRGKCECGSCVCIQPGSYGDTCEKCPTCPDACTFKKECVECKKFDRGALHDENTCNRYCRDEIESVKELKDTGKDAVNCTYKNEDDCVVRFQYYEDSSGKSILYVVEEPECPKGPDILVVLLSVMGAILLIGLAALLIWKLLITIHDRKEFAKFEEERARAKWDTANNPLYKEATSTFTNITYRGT
UniProt Q8WWA0, residues 19-298: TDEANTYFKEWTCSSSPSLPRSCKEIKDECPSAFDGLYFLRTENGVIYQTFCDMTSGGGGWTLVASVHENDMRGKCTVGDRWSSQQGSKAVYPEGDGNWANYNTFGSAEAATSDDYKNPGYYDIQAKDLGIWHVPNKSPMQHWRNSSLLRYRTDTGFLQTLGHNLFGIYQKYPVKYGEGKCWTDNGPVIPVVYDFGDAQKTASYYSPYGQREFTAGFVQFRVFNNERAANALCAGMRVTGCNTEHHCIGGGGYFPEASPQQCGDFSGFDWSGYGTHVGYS

Columns and labels:
[1] = target: human integrin αvβ5 on THP1-derived macrophages (human (endogenous in THP1)) (UniProt P06756+P18084); test: flow cytometry on cells; THP1 cells induced by 100 ng/ml PMA for 48 h, pretreated with IgG isotype or neutralizing antibodies against human integrin αvβ3 or αvβ5, then incubated with Flag-tagged omentin-1; detected by PE-labeled antibody against the flag tag; n = 3; only the binder purified
[2] = target: human integrin αvβ3 on THP1-derived macrophages (human (endogenous in THP1)) (UniProt P06756+P05106); test: as above

binding [1]: binds
binding [2]: binds
Substance: flag-tagged omentin-1 (from UniProt Q8WWA0 19-298)
